Here are results for 1 molecule from patent US12310236B2, “Encapsulant preventing lead leakage on perovskite, method for encapsulating perovskite to prevent lead leakage and perovskite photosensitive device comprising the same” (PUKYONG NATIONAL UNIVERSITY INDUSTRY—UNIVERSITY COOPERATION …, priority 2023, dated 2025).

This data set can be described thus: Identification of lead leakage: encapsulated perovskite sample placed in 40 mL of water, water analyzed with ICPMS. The following applies: 30 seconds in water; without TiOx (FIG. 3).

Each structure is given as a SMILES string.

In the case of `c1ccc2c(c1)OCCOCCOc1ccccc1OCCOCCO2` [di-benzo], the “concentration exhibiting the best encapsulating effect” value is on record as 0.02 % by weight.
